# In the supplement of paper PMC8616043:
# Where a name gives a salt, the structure may show the parent alone. Some of the results follow. Single values are uncertain here, since repeats match poorly.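 The cells are human U-2 OS cells that stably carry a GFP sensor with a nuclear import signal and a classical export signal. They were transfected to make PR50, a 50-repeat proline–arginine dipeptide protein from the ALS/FTD gene C9ORF72. Each well's nuclear-minus-cytoplasm GFP signal was scaled from in-plate DMSO (low) to PR-only wells (high), then scored against the other test wells on the plate; compounds scoring well below zero were called hits that reverse the PR effect.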
# Test system: U-2 OS NCT-C biosensor cells expressing PR50
# Assay: Z-score of normalised NCT-C biosensor translocation index in PR50-expressing cells; higher = more nuclear biosensor (more disrupted nuclear export)
# Details: 3 µM; 24 h
row,Compound,Z-score
1,CC(=O)Oc1ccc(/C=C/c2cc(OC(C)=O)cc(OC(C)=O)c2)cc1 [Triacetylresveratrol],inactive: 0.134
2,C[N+](C)(C)CC#CCOC(=O)Nc1cccc(Cl)c1,inactive: -0.391
3,CC[C@@H](C)C(=O)O[C@H]1[C@H](O)[C@H]2[C@@H](CN3C[C@@H](C)CC[C@H]3[C@@]2(C)O)[C@@H]2C[C@]34O[C@]5(O)[C@@H](OC(=O)[C@](C)(O)[C@@H](C)O)CC[C@@]3(C)[C@@H]5[C@@H](OC(C)=O)[C@@H](OC(C)=O)[C@H]4[C@@]21O (stereo in doubt) [Protoveratrine B],inactive: 0.806
4,C[C@@H]1C[C@H]2CC[C@H](O2)[C@H](C)C(=O)O[C@@H](C)C[C@@H]2CC[C@@H](O2)[C@@H](C)C(=O)O[C@H](C)C[C@H]2CC[C@@H](O2)[C@H](C)C(=O)O[C@@H](C)C[C@@H]2CC[C@@H](O2)[C@@H](C)C(=O)O1 [Nonactin],inactive: -0.568
5,CCCN1C[C@H](CSC)C[C@@H]2c3cccc4[nH]cc(c34)C[C@H]21 [Pergolide methanesulfonate],inactive: -0.225
6,CCCCc1ccc(C(=O)O)nc1 [Fusaric acid],inactive: -0.429
7,N.N.[Cl][Pt][Cl] [Cisplatin],inactive: 0.323
8,COc1ccc2[nH]cc(CCN)c2c1 [O-Methylserotonin hydrochloride],inactive: -0.628
9,CCC12C=CCN3CC[C@@]4(c5ccc(OC)cc5N(C)[C@H]4[C@@](O)(C(=O)OC)[C@@H]1OC(C)=O)[C@@H]32 (stereo partly drawn) [Vindoline],inactive: -0.144
10,Cc1ncc(CNC(=O)N(CCCl)N=O)c(N)n1 [Nimustine hydrochloride],inactive: -0.361
11,CN(C)Cc1c[nH]c2ccccc12 [Gramine],inactive: -1.08
12,C[N+]1(C)CCOC(O)(c2ccc(-c3ccc(C4(O)C[N+](C)(C)CCO4)cc3)cc2)C1 (stereo not drawn) [Hemicholinium-3],inactive: -0.806
13,Nc1ccncc1 [4-aminopyridine],inactive: 0.186
14,Nc1ccncc1 [Dalfampridine (4-Aminopyridine)],inactive: -0.0275
15,"OC[C@H]1O[C@@H](n2cnc3cc(Cl)c(Cl)cc32)[C@H](O)[C@@H]1O [5,6-  Dichlorobenzimida zole riboside]",inactive: 1.61
16,CCCCCCCCCCCCCC(=O)O[C@@H]1[C@@H](C)[C@@]2(O)[C@@H](C=C(CO)C[C@]3(O)C(=O)C(C)=C[C@@H]23)[C@@H]2C(C)(C)[C@]12OC(C)=O [Phorbol 12-myristate 13-acetate],inactive: 1.23
17,CCCCCCCCCCCCCC(=O)O[C@@H]1[C@@H](C)[C@@]2(O)[C@@H](C=C(CO)C[C@]3(O)C(=O)C(C)=C[C@@H]23)[C@@H]2C(C)(C)[C@]12OC(C)=O [Phorbol 12-  myristate 13- acetate],inactive: 2.51
18,COc1ccc(C(=O)N2CCCC2=O)cc1 [Aniracetam],inactive: 0.624
19,O=C(O)CCCc1ccc(N(CCCl)CCCl)cc1 [Chlorambucil],inactive: 1.01

# Looked up one by one from above (two):
row,Compound,Z-score
1,CC(=O)Oc1ccc(/C=C/c2cc(OC(C)=O)cc(OC(C)=O)c2)cc1 [Triacetylresveratrol],inactive: 0.134
8,COc1ccc2[nH]cc(CCN)c2c1 [O-Methylserotonin hydrochloride],inactive: -0.628

# (listing goes on)

row,Compound,Z-score
1,CC[C@@H](C(N)=O)N1CCCC1=O [Levetiracetam],inactive: -0.518
2,CN1CCC(c2c[nH]c3ccc(O)cc23)CC1,inactive: 2.96
3,CC(C)[C@@]1(NC(=O)[C@@H]2C[C@@H]3c4cccc5[nH]cc(c45)C[C@H]3N(C)C2)O[C@@]2(O)[C@@H]3CCCN3C(=O)[C@H](Cc3ccccc3)N2C1=O [Dihydroergocristine mesylate],inactive: -0.902
4,O=C1C=C2C=C[C@@H]3C[C@@]2(O1)[C@H]1CCCCN31 [Securinine],inactive: -0.44
5,CC(=O)C1=C(O)[C@@H]2[C@H]3c4c[nH]c5cccc(c45)C[C@H]3C(C)(C)N2C1=O [Cyclopiazonic acid],inactive: -0.868
6,CC(N)Cc1c[nH]c2ccc(OCc3cccs3)cc12 (stereo not drawn),inactive: 0.0606
7,COc1cc([C@@H]2c3cc4c(cc3[C@H](O)[C@H]3COC(=O)[C@@H]23)OCO4)cc(OC)c1OC [Picropodophyllin],inactive: 0.0952
8,C/C=C(/C)C(=O)O[C@H]1CC[C@@]2(C)[C@@H]3CC[C@H]4[C@]5(O)C[C@H](O)[C@@]6(O)[C@@H](CN7C[C@@H](C)CC[C@H]7[C@@]6(C)O)[C@]5(O)C[C@@]42O[C@]13O [Cevadine],inactive: -0.545
9,O[C@H]1[C@H]2[C@H](O)CCCN2C[C@H]1O [Swainsonine],inactive: -0.391
10,NC(=O)CN1CC(O)CC1=O (stereo not drawn) [Oxiracetam],inactive: 1.45
11,CC(C)[C@@]1(O)[C@@H](OC(=O)c2ccc[nH]2)[C@@]2(O)[C@@]3(C)C[C@]4(O)O[C@@]5([C@H](O)[C@@H](C)CC[C@]35O)[C@@]2(O)[C@@]14C [Ryanodine],inactive: -1.21
12,CC(N[C@H]1C[C@@H]1c1ccccc1)c1ccc2c(c1)OCCO2 (stereo partly drawn),active: -2.21
13,NC(=O)c1ccc(OCC(O)CN2CC=C(c3ccc(F)cc3)CC2)cc1 (stereo not drawn),inactive: 0.707
14,C[N+](C)(C)CC#CCN1CCCC1=O [Oxotremorine methiodide],inactive: 0.509
15,COc1ccc2c(c1OC)C(=O)O[C@H]2C1c2cc3c(cc2CCN1C)OCO3 (stereo partly drawn) [D-β-Hydrastine],inactive: 0.432
16,C[N+]1(C)[C@@H]2C[C@@H](OC(=O)[C@H](CO)c3ccccc3)C[C@H]1[C@@H]1O[C@@H]12 [(-)-Scopolamine methyl bromide],inactive: -0.892
17,C[C@@H]1OC(=O)[C@H]2C[C@H]3CCCC[C@@H]3[C@@H](/C=C/[C@H]3CCC[C@H](C)N3C)[C@@H]12 [Himbacine],inactive: 0.272
18,CCn1cc(C(=O)O)c(=O)c2cc3c(cc21)OCO3 [Oxolinic acid],inactive: -0.111
19,"CN(C(=O)Cc1ccc(Cl)c(Cl)c1)C(CN1CCCC1)c1cccc(OCC(=O)O)c1 (stereo not drawn) [ICI 204,448  hydrochloride]",inactive: -0.426
